# Experimental data as given in PubChem BioAssay AID2685 (National Center for Advancing Translational Sciences (NCATS), 2010).
# Hit rate of the full screen: of about 320,000 compounds, about 2,100 (0.66%) were called active. The shares of active, inactive and inconclusive entries below differ from those in the screen. Calls follow the shape of the dose curve; as a rule, active = well fitted inhibition curve with a large enough effect in the signal ratio, with a control signal flat (not every such curve was filed as active); inconclusive = small, poorly fitted or top-dose-only effect, or effect the other way, or a change in a side signal; inactive = flat fitted curve, though single readings scatter; the % refers to the signal ratio. Potencies beside an inconclusive call are fits to weak or partial responses and may not hold up.
# Assay: qHTS Assay for Lipid Storage Modulators in Drosophila S3 Cells
# Conditions: BODIPY lipid droplet fluorescence, 18-24 h, cells fed with added oleic acid; lipid storage change, negative = inhibition: at 46.1 µM (top of the series) unless noted
# Procedure, shortened: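 Laser-scanning cytometry quantifies lipid droplet accumulation (500–530 nm total intensity; droplet/cell object ratio) in oleic acid-fed (400 uM added) Drosophila S3 cells treated with a concentration series. 20 uM Triacsin C defined 100% inhibition.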
# % is scaled to controls: 0 for no effect and ±100 for the full control effect; potency is read from the fitted curve at half-maximal effect.
Compound,"lipid storage change, negative = inhibition",Potency
CCN(CC)C(=O)C(=O)c1ccn(-c2c(C)csc2C(=O)OC)c1,inconclusive: -19.9%,–
O=C(NNCc1ccc(O)cc1)c1ccccc1Cl,inconclusive: 65.7%,–
C=CCN(C(=O)c1csnn1)C(C(=O)NCc1ccc(F)cc1)c1cccs1 (configuration not stated),–,"inconclusive: 6.51 µM [falling, single point]"
C=CCNc1nc(C(=O)OCC(=O)Nc2cccc(SC)c2)cs1,inconclusive,–
COC(=O)C1Cc2c([nH]c3ccccc23)CN1C(C)=O (configuration not stated),inactive,–
Cc1nccn1CCCNC(=O)CC1C(=O)NCCN1Cc1ccc(F)cc1Cl (configuration not stated),inconclusive: -22.9%,–
COc1ccc(S(=O)(=O)N(CC(=O)NCc2cccnc2)C2CCCCC2)cc1OC,–,"inconclusive: 1.84 µM [activator, partial curve]"
COC(=O)[C@@]12CCCCN1[C@H](c1ccc(SC3CCCCC3)c(OC)c1)[C@@H]1C(=O)N(C)C(=O)[C@@H]12,inconclusive: 2.37%,–
CCCSc1nc(N2CCOCC2)c2c(c1C#N)CC(C)(C)SC2,–,"inconclusive: 1.84 µM [falling, partial curve]"
N#Cc1c(N)nc2c(c1-c1ccncc1)CCCCC2,inconclusive: 39.5%,–
Cc1onc(NC(=O)c2ccc(Cl)cc2Cl)c1Br,inconclusive: 19.6%,–
O=C(NC(=S)Nc1ccccc1Br)C1CCCC1,–,"inconclusive: 9.2 µM [activator, partial curve]"
CO/N=C(/CS(=O)(=O)Cc1ccccc1Cl)c1ccc(Cl)cc1Cl,inconclusive: 68.2%,–
COC(=O)[C@@]12CCCN1[C@H](c1ccc(-c3ccc(F)cc3)c(OC)c1)[C@H]1C(=O)N(C)C(=O)[C@H]12,–,"inconclusive: 0.116 µM [falling, full curve, poor fit]"
Cc1cccc(C)c1NC(=O)N1C2CCCC1CC(NC(=O)C(C)(C)C)C2 (configuration not stated),inconclusive: 37.2%,–
CNC(=O)COc1cccc(C(=O)NCc2ccccc2)c1,inconclusive: 16.9%,–
O=S(=O)(c1ccc(S(=O)(=O)n2cnc3ccccc32)cc1)N1CCCCCC1,inconclusive: -13.3%,–
CCN(CC)S(=O)(=O)c1cccc(NC(=O)c2ccc(Sc3nncn3C)c([N+](=O)[O-])c2)c1,inconclusive: 1.15%,–
COc1cc(C)c(C)cc1S(=O)(=O)n1c(C)nc2ccccc21,inconclusive: -30.3%,–
CC1CCc2nn(CC(=O)NCCCN3CCCC3=O)cc2C1 (configuration not stated),–,"inconclusive: 0.231 µM [falling, partial curve, poor fit]"
COc1cc(Cl)c(C)cc1NCC(=O)Nc1cccc(S(=O)(=O)N2CCCC2)c1,inconclusive: 6.3%,–
COc1cccc(-n2nnc3c(=O)n(Cc4ccc(C)cc4)cnc32)c1,inconclusive: -22.9%,–
CCc1sc(NC(=O)CN2CCC(C(N)=O)CC2)nc1-c1ccccc1,–,"inconclusive: 29.1 µM [falling, single point]"
O=C(Nc1ccc2c(c1)OCCO2)Nc1ccc2c(c1)OCO2,inconclusive: 5.91%,–

# Grouped by structure: the entries above containing four or more nitrogen atoms.
Compound,"lipid storage change, negative = inhibition",Potency
C=CCN(C(=O)c1csnn1)C(C(=O)NCc1ccc(F)cc1)c1cccs1 (configuration not stated),–,"inconclusive: 6.51 µM [falling, single point]"
Cc1nccn1CCCNC(=O)CC1C(=O)NCCN1Cc1ccc(F)cc1Cl (configuration not stated),inconclusive: -22.9%,–
N#Cc1c(N)nc2c(c1-c1ccncc1)CCCCC2,inconclusive: 39.5%,–
CCN(CC)S(=O)(=O)c1cccc(NC(=O)c2ccc(Sc3nncn3C)c([N+](=O)[O-])c2)c1,inconclusive: 1.15%,–
CC1CCc2nn(CC(=O)NCCCN3CCCC3=O)cc2C1 (configuration not stated),–,"inconclusive: 0.231 µM [falling, partial curve, poor fit]"
COc1cccc(-n2nnc3c(=O)n(Cc4ccc(C)cc4)cnc32)c1,inconclusive: -22.9%,–
CCc1sc(NC(=O)CN2CCC(C(N)=O)CC2)nc1-c1ccccc1,–,"inconclusive: 29.1 µM [falling, single point]"

# Copied from the list:
# In lipid storage change, negative = inhibition, Cc1nccn1CCCNC(=O)CC1C(=O)NCCN1Cc1ccc(F)cc1Cl (configuration not stated) is entered as inconclusive: -22.9%
# In lipid storage change, negative = inhibition, O=S(=O)(c1ccc(S(=O)(=O)n2cnc3ccccc32)cc1)N1CCCCCC1 is entered as inconclusive: -13.3%

# Remaining list, next part:

Compound,"lipid storage change, negative = inhibition",Potency
O=C(NCCCN1CCOCC1)C(C(=O)c1ccccc1)n1ccccc1=O (configuration not stated),–,"inconclusive: 0.116 µM [falling, full curve, poor fit]"
COc1ccc(OC)c(NC(=O)COC(=O)CN(C)S(=O)(=O)c2ccc(C)cc2)c1,inactive,–
COc1ccccc1OCC(=O)NCC1CCCN(Cc2cnn(C(C)C)c2)C1 (configuration not stated),–,"inconclusive: 0.058 µM [activator, full curve, poor fit]"
CN(C)N=Nc1ccc(S(=O)(=O)NC(Cc2ccccc2)C(=O)O)cc1 (configuration not stated),inconclusive: 47.1%,–
O=C(NCCCl)Nc1ccccc1OCCOc1ccccc1NC(=O)NCCCl,inconclusive: 11.3%,–
COc1ccc(Br)cc1CNC(=O)c1ccc2c(c1)N(C)CCS2,–,"inconclusive: 32.6 µM [rising, single point]"
O=C(O/N=C/C1=C(Cl)c2ccccc2CC1)c1ccc(F)cc1,inconclusive: -125%,–
COc1ccc(C(=O)Nc2ccccc2C(=O)NCc2ccco2)cc1OC,inconclusive: -60.3%,–
CCOc1ccccc1N1CCN(C(=S)NC(=O)C23CC4CC(CC(C4)C2)C3)CC1,inconclusive: -20.4%,–
Nn1c(Cc2cccc3ccccc23)nnc1SCC(=O)NC1CCS(=O)(=O)C1 (configuration not stated),inconclusive: -1.63%,–
COn1c(=O)c(-c2ccc(C)cc2)[n+]([O-])c2ccccc21,inconclusive: 36.9%,–
Cc1ccc(NS(=O)(=O)c2cc(C(=O)OCC(=O)NCC3CCCO3)ccc2C)cc1 (configuration not stated),inconclusive: -3.69%,–
O=C(O)CCCN1C(=O)/C(=C/c2cn(-c3ccccc3)nc2-c2cccs2)SC1=S,inconclusive: -24.7%,–
Cc1ccsc1-c1nc(-c2ccccc2)c(-c2ccccc2)[nH]1,inconclusive: 27.4%,–
O=S(=O)(Nc1cccc(-n2cnnn2)c1)c1ccccc1C(F)(F)F,inactive,–
Cc1c(Cl)ccc2sc(NC(=O)c3ccco3)nc12,–,"inconclusive: 9.2 µM [falling, partial curve, poor fit]"
COc1cccc2cc(-c3csc(NC(=O)CCC(=O)NCCCN4CCC(C)CC4)n3)c(=O)oc12,inconclusive: 0.722%,–
CCOC(=O)c1c(NC(=O)CN2CCCCC2)sc2c1CCN(C(=O)OCC)C2,–,"inconclusive: 29.1 µM [cytotoxic, single point]"
O=C(CSC1=NCCS1)Nc1ccc(S(=O)(=O)NC2CCCCC2)cc1,–,"inconclusive: 0.058 µM [falling, full curve, poor fit]"
Cc1ccc(OCc2cc(C(=O)N(C)Cc3cnn(-c4ccccc4C)c3)no2)cn1,–,active: 23.1 µM
CCCn1c2ccccc2c2cnn(CC(=O)NC3CCN(Cc4ccccc4)CC3)c(=O)c21,–,"inconclusive: 0.92 µM [activator, full curve, poor fit]"
COc1ccc([C@]23Cc4cc(C#N)ccc4C(O2)C2=C(CC4(CCCCC4)OC2=O)O3)cc1,inconclusive: 20.8% [at 9.22 µM],–
Cc1cccc2sc(NC(=O)C3CCN(S(=O)(=O)c4cc([N+](=O)[O-])ccc4Cl)CC3)nc12,inconclusive: -21.9%,–
